Results reported in the supplement of paper PMC11006884.
Only a part is listed here, and it is no random draw.

Sequences of proteins named here, by UniProt entry; tags and fusion partners are left off. A change or cut given only in a name is not applied to a line headed by its entry.
UniProt Q9UL15: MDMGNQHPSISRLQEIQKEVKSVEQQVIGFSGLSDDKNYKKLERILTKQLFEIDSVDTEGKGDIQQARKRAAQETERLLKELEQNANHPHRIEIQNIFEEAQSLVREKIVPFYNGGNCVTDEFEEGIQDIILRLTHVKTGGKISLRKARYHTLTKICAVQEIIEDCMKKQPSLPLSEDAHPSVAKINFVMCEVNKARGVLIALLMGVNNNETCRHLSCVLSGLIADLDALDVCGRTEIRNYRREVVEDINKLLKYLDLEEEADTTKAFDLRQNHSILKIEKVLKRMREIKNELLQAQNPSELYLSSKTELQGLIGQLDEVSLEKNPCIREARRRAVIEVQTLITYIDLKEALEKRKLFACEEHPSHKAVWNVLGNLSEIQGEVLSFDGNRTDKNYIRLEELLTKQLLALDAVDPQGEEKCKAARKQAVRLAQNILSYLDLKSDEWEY
UniProt Q9UNN5: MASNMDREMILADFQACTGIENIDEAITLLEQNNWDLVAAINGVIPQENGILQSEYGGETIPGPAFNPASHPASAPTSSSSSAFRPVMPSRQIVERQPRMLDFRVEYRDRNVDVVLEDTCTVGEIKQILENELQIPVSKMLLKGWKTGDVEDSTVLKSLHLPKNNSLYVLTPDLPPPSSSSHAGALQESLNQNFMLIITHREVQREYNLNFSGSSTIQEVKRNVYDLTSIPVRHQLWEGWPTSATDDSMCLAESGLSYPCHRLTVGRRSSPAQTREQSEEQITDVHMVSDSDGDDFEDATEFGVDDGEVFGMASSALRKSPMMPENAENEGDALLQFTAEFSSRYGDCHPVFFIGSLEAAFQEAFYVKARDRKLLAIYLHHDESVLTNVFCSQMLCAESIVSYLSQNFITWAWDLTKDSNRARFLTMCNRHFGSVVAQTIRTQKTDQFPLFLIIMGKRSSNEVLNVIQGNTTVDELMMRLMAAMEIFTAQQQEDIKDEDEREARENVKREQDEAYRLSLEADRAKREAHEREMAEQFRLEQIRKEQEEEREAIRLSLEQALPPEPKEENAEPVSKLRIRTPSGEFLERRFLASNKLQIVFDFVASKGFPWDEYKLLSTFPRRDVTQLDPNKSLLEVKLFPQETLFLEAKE
UniProt Q9Y2Z2: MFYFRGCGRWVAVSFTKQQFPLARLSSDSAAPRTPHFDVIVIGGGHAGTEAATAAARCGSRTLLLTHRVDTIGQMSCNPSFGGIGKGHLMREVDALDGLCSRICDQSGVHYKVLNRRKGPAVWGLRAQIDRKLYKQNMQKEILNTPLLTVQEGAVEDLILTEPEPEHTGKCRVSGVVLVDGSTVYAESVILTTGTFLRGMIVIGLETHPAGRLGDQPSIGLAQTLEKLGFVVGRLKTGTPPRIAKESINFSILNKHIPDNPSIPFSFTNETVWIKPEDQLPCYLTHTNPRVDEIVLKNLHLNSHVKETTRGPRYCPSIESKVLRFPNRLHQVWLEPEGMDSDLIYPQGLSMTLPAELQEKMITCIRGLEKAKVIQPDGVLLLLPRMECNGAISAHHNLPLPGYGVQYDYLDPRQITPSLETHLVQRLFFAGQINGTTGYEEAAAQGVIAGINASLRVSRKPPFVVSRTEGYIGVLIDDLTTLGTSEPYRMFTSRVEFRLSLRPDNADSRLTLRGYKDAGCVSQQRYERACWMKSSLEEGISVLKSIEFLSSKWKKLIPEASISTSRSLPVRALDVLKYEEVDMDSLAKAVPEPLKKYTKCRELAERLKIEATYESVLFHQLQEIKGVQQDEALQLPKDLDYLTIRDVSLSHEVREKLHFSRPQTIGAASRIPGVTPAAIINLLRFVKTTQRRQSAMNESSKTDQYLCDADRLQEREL
UniProt Q9UNE7: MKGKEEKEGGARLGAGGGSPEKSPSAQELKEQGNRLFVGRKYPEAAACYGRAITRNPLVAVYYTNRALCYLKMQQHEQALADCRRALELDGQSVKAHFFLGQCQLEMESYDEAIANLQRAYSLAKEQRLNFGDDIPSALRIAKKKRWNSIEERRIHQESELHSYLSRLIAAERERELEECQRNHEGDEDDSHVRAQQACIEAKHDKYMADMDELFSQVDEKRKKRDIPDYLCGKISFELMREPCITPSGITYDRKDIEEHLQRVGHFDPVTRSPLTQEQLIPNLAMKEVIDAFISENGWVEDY
UniProt Q9UM54, whole entry, looked up: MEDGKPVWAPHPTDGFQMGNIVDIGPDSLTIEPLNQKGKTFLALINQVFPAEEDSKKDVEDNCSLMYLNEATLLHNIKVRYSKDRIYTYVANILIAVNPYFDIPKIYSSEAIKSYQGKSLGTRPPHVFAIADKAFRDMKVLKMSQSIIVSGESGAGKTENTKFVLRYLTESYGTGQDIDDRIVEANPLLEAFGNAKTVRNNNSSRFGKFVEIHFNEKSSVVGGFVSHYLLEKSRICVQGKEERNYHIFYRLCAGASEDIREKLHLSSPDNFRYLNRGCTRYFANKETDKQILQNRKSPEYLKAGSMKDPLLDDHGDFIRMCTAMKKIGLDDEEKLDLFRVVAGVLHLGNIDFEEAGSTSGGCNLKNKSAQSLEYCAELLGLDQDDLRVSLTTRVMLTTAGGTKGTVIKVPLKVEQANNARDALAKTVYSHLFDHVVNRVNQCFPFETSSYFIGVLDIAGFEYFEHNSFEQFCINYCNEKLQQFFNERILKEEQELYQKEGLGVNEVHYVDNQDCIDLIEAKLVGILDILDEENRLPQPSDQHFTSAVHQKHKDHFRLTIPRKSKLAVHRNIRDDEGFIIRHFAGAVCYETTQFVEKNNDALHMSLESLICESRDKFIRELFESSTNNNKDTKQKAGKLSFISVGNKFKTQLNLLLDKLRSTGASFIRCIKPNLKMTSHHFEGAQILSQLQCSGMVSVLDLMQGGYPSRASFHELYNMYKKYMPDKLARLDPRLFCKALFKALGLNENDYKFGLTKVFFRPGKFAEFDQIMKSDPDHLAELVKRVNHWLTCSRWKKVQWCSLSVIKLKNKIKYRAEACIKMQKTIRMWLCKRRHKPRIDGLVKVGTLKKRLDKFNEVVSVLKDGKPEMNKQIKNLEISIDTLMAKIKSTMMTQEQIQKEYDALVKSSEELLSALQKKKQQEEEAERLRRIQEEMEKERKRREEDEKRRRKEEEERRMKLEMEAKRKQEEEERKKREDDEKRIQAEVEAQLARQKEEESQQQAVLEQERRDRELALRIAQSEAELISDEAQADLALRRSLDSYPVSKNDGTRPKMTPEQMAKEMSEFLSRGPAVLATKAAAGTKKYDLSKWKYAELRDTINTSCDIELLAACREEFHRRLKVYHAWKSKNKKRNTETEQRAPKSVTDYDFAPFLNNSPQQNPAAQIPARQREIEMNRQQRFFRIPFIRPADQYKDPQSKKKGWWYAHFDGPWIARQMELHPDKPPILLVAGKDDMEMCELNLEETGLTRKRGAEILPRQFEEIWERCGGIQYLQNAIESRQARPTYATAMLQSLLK
UniProt Q9Y3I0: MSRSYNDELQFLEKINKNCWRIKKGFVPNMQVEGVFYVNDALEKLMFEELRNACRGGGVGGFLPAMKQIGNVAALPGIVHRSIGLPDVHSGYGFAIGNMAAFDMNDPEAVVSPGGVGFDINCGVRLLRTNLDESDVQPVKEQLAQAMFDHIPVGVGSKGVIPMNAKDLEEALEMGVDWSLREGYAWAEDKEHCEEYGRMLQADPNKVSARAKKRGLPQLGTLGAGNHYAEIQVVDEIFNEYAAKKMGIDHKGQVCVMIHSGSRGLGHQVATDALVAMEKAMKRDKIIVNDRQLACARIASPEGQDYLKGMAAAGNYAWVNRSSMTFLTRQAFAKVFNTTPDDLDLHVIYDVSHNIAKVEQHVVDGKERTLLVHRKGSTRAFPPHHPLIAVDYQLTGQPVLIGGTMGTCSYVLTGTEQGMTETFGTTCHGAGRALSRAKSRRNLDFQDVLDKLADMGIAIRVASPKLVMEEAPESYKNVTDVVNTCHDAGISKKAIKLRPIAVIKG
UniProt Q9Y295: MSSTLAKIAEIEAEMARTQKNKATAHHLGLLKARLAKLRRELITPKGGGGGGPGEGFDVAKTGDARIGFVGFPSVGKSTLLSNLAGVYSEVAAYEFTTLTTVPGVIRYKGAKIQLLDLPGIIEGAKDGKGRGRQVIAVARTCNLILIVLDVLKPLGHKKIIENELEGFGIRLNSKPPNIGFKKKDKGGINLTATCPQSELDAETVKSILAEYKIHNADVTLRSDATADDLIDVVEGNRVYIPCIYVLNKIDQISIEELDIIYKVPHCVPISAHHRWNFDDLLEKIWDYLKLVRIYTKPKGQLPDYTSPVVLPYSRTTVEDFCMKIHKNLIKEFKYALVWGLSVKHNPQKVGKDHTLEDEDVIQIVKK
UniProt Q9UHJ6: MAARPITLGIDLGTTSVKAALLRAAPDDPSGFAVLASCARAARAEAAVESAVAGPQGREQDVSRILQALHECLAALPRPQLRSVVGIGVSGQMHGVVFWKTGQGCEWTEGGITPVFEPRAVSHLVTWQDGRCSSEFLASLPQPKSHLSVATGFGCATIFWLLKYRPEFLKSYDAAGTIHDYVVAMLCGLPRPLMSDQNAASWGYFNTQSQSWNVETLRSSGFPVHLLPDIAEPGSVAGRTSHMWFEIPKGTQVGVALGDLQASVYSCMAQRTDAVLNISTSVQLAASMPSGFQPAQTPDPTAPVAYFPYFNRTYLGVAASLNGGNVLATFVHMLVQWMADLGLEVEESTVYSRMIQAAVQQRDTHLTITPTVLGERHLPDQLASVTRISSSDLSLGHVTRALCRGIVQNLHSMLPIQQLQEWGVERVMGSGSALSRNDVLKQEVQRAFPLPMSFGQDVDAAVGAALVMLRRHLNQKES
UniProt Q9Y2I1: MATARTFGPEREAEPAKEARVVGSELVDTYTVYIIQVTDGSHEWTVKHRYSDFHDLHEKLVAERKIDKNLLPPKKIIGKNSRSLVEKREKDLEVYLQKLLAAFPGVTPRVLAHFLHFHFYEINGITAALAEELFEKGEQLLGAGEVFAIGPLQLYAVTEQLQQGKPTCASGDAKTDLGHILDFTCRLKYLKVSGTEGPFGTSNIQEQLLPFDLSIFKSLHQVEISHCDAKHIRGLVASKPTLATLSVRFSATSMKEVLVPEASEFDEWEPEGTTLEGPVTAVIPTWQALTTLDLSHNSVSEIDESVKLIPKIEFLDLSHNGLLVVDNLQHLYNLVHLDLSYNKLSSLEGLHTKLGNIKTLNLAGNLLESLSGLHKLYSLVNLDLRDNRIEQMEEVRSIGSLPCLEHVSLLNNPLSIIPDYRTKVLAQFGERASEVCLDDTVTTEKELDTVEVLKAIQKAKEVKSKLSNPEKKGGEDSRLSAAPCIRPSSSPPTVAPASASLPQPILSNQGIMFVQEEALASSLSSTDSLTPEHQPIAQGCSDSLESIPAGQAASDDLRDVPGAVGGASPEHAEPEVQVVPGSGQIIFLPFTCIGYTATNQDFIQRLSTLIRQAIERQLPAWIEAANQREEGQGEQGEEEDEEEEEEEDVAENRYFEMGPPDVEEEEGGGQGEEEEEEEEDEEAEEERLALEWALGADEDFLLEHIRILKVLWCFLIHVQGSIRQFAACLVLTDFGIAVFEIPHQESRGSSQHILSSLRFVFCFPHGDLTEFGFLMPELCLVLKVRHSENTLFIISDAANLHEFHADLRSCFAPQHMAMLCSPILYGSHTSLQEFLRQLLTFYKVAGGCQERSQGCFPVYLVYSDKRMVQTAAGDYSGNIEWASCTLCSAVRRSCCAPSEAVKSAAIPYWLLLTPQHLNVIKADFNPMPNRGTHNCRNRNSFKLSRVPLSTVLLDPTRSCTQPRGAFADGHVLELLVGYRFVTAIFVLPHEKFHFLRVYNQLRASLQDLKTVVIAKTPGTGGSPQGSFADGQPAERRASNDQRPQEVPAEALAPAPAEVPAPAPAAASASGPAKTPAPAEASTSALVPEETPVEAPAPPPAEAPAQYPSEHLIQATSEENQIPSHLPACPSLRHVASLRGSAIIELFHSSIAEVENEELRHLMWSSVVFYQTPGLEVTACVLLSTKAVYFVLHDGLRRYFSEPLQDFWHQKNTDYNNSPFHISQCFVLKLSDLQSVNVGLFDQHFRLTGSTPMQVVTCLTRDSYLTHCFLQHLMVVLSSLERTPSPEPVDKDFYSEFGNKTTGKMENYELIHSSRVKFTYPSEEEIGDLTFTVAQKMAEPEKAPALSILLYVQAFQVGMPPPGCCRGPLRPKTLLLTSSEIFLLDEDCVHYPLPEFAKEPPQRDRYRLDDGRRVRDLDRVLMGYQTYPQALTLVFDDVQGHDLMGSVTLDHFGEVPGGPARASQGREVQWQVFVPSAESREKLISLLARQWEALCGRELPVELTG

Compound: COC(=O)C#Cc1ccccc1 [methyl 3-phenylpropiolate]
Experiment: log2 ratio of iodoacetamide-alkyne labeling of the cysteine site, DMSO over compound (competition); higher = stronger covalent engagement of the cysteine by the compound, active = 1 or more
Conditions: 500 µM; treatment time 1 h; system: HEK293T cell lysate
In short: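 Electrophile (500 µM) or vehicle was added to HEK293T lysate (2 mg/mL) for 1 h at ambient temperature before iodoacetamide alkyne labelling (1 h) and click coupling to sCIP-TMT reagents. After pooling, overnight trypsin digestion at 37 °C, streptavidin enrichment and acid elution, peptides were measured by Orbitrap Eclipse LC-MS/MS with FAIMS and quantified in FragPipe. Each cysteine's log2 competition ratio compares mean control-channel with mean compound-channel reporter intensity, control over compound. Data came from duplicate channels across three replicates, excluding cysteines quantified in only one replicate.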

Target	log2 ratio of iodoacetamide-alkyne labeling
AGTPBP1 C567 (UniProt Q9UPW5)	active: 1.18
HECTD1 C369 (UniProt Q9ULT8)	inactive: 0.152
BAG5 C118 (UniProt Q9UL15)	inactive: 0.0776
HECTD1 C254 (UniProt Q9ULT8)	inactive: 0.374
FAF1 C260 (UniProt Q9UNN5)	inactive: 0.0604
MTO1 C77 (UniProt Q9Y2Z2)	inactive: 0.833
STUB1 C232 (UniProt Q9UNE7)	inactive: 0.0873
MYO6 C1102 (UniProt Q9UM54)	inactive: 0.234
UniProt Q9Y3I0_C54	inactive: 0.017
KIDINS220 C867 (UniProt Q9ULH0)	inactive: 0.436
DRG1 C195 (UniProt Q9Y295)	inactive: 0.248
SHPK C105 (UniProt Q9UHJ6)	inactive: 0.353
ZMYND8 C196 (UniProt Q9ULU4)	inactive: -0.0132
NISCH C403 (UniProt Q9Y2I1)	inactive: 0.119
MRPS7 C152 (UniProt Q9Y2R9)	inactive: -0.102

Single entries from the entries so far:
UniProt Q9Y3I0_C54 | log2 ratio of iodoacetamide-alkyne labeling: inactive: 0.017
AGTPBP1 C567 (UniProt Q9UPW5) | log2 ratio of iodoacetamide-alkyne labeling: active: 1.18
